Source: patent US20050265970A1
Results are given in words; binding and its absence hold for the method and conditions named. For some of these results: Binding seen in cells or lysates may run through a third protein. For some of these results: Binding calls can cover weak binding; strength is not graded here. Sequences can lack the tags named with a protein.

Amino acid sequences for entries named in this document (tags omitted). A change or cut given only in a name is not applied to a line headed by its entry.
UniProt O14733: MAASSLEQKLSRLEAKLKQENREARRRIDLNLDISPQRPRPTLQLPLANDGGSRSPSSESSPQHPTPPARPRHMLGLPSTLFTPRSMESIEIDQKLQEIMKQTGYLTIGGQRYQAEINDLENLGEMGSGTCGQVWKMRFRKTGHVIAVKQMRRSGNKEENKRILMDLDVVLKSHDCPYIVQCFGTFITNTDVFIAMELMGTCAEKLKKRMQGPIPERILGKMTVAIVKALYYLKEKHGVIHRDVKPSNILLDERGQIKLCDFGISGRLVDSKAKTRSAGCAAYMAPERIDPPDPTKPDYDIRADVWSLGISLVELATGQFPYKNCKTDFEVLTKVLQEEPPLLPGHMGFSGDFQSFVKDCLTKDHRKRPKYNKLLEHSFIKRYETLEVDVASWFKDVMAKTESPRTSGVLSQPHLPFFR

Tests used:
[1] = biological target: JNKK2 (63-401), in vitro translated (human) (UniProt O14733); experiment: GST pull-down of 35S-labeled in vitro translated MKK7 truncations
[2] = biological target: JNKK2 (91-401), in vitro translated (human) (UniProt O14733); experiment: as above
[3] = biological target: JNKK2 (132-401), in vitro translated (human) (UniProt O14733); experiment: as above
[4] = biological target: JNKK2 (63-401), in vitro translated (human) (UniProt O14733); experiment: GST pull-down of 35S-labeled in vitro translated JNKK2 truncations
[5] = biological target: JNKK2 (91-401), in vitro translated (human) (UniProt O14733); experiment: as above
[6] = biological target: JNKK2 (132-401), in vitro translated (human) (UniProt O14733); experiment: as above
[7] = biological target: MKK3b (HA-tagged, in 293 cells); experiment: co-IP from 293 cells, anti-FLAG beads, anti-HA Western blot
[8] = biological target: MKK6 (HA-tagged, in 293 cells); experiment: as above
[9] = biological target: MKK3b (HA-tagged, in 293 cells); experiment: combined immunoprecipitation and Western blot, 293 cells
[10] = biological target: MKK6 (HA-tagged, in 293 cells); experiment: as above

binding [1]	binding [2]	binding [3]	binding [4]	binding [5]	binding [6]	binding [7]	binding [8]	binding [9]	binding [10]	Binder
binds	binds	binds	binds	binds	binds	–	–	–	–	GST-Gadd45β (full-length murine Gadd45β directly fused to GST) (protein, UniProt P22339 1-160, looked up, not shown: a dimerising Fc or GST) MTLEELVASDNAVQKMQAVTAAVEQLLVAAQRQDRLTVGVYEAAKLMNVDPDSVVLCLLAIDEEEEDDIALQIHFTLIQSFCCDNDIDIVRVSGMQRLAQLLGEPAETLGTTEARDLHCLLVTNCHTDSWKSQGLVEVASYCEESRGNNQWVPYISLEER
–	–	–	–	–	–	no binding	no binding	no binding	no binding	FLAG-Gadd45β (full-length murine Gadd45β, pcDNA-FLAG-Gadd45β, expressed in 293 cells) (protein, UniProt P22339 1-160, looked up, not shown: small tags and cut ends) MTLEELVASDNAVQKMQAVTAAVEQLLVAAQRQDRLTVGVYEAAKLMNVDPDSVVLCLLAIDEEEEDDIALQIHFTLIQSFCCDNDIDIVRVSGMQRLAQLLGEPAETLGTTEARDLHCLLVTNCHTDSWKSQGLVEVASYCEESRGNNQWVPYISLEER
